# According to ChEMBL document CHEMBL4316593 (Eur J Med Chem, 2019):
# The source gives many values for each of these; only a part stands here.
# Experiments:
# Assay type in all cases: cell-based
# Details in all cases: U-87MG ATCC
# [1] = Inhibition of RTK/PI3K/AKT/mTOR signaling in human U87 cells assessed as up regulation of SLC1A3 gene expression at cytotoxic IC50 measured after 48 hrs relative to control
# [2] = Inhibition of RTK/PI3K/AKT/mTOR signaling in human U87 cells assessed as down regulation of EGR1 gene expression at cytotoxic IC50 measured after 48 hrs relative to control
# [3] = Inhibition of RTK/PI3K/AKT/mTOR signaling in human U87 cells assessed as down regulation of FAM83H gene expression at cytotoxic IC50 measured after 48 hrs relative to control
# [4] = Inhibition of RTK/PI3K/AKT/mTOR signaling in human U87 cells assessed as up regulation of SUMF2 gene expression at cytotoxic IC50 measured after 48 hrs relative to control
# [5] = Inhibition of RTK/PI3K/AKT/mTOR signaling in human U87 cells assessed as down regulation of OXCT1 gene expression at cytotoxic IC50 measured after 48 hrs relative to control
# [6] = Inhibition of RTK/PI3K/AKT/mTOR signaling in human U87 cells assessed as up regulation of PRMT1 gene expression at cytotoxic IC50 measured after 48 hrs relative to control
# [7] = Inhibition of RTK/PI3K/AKT/mTOR signaling in human U87 cells assessed as down regulation of RIPK1 gene expression at cytotoxic IC50 measured after 48 hrs relative to control
# [8] = Inhibition of RTK/PI3K/AKT/mTOR signaling in human U87 cells assessed as up regulation of CBX3 gene expression at cytotoxic IC50 measured after 48 hrs relative to control
# [9] = Inhibition of RTK/PI3K/AKT/mTOR signaling in human U87 cells assessed as up regulation of progestin and adipoQ receptor family member 8 gene expression at cytotoxic IC50 measured after 48 hrs relative to control
# [10] = Inhibition of RTK/PI3K/AKT/mTOR signaling in human U87 cells assessed as up regulation of PER3 gene expression at cytotoxic IC50 measured after 48 hrs relative to control
# [11] = Inhibition of RTK/PI3K/AKT/mTOR signaling in human U87 cells assessed as up regulation of UL16 binding protein 1 gene expression at cytotoxic IC50 measured after 48 hrs relative to control
# [12] = Inhibition of RTK/PI3K/AKT/mTOR signaling in human U87 cells assessed as down regulation of SIRT7 gene expression at cytotoxic IC50 measured after 48 hrs relative to control
# [13] = Inhibition of RTK/PI3K/AKT/mTOR signaling in human U87 cells assessed as up regulation of ST6 N-acetylgalactosaminide alpha-2,6-sialyltransferase 4 gene expression at cytotoxic IC50 measured after 48 hrs relative to control
# [14] = Inhibition of RTK/PI3K/AKT/mTOR signaling in human U87 cells assessed as up regulation of sterile alpha motif domain containing 1 gene expression at cytotoxic IC50 measured after 48 hrs relative to control
# [15] = Inhibition of RTK/PI3K/AKT/mTOR signaling in human U87 cells assessed as up regulation of nuclear receptor coactivator 5 gene expression at cytotoxic IC50 measured after 48 hrs relative to control
# [16] = Inhibition of RTK/PI3K/AKT/mTOR signaling in human U87 cells assessed as down regulation of EXOC6B gene expression at cytotoxic IC50 measured after 48 hrs relative to control
# [17] = Inhibition of RTK/PI3K/AKT/mTOR signaling in human U87 cells assessed as up regulation of CDH15 gene expression at cytotoxic IC50 measured after 48 hrs relative to control
# [18] = Inhibition of RTK/PI3K/AKT/mTOR signaling in human U87 cells assessed as down regulation of MUL1 gene expression at cytotoxic IC50 measured after 48 hrs relative to control
# [19] = Inhibition of RTK/PI3K/AKT/mTOR signaling in human U87 cells assessed as down regulation of UBE2D1 gene expression at cytotoxic IC50 measured after 48 hrs relative to control
# [20] = Inhibition of RTK/PI3K/AKT/mTOR signaling in human U87 cells assessed as down regulation of NDUFB6 gene expression at cytotoxic IC50 measured after 48 hrs relative to control
# [21] = Inhibition of RTK/PI3K/AKT/mTOR signaling in human U87 cells assessed as up regulation of catechol-O-methyltransferase gene expression at cytotoxic IC50 measured after 48 hrs relative to control
# [22] = Inhibition of RTK/PI3K/AKT/mTOR signaling in human U87 cells assessed as down regulation of GPRIN1 gene expression at cytotoxic IC50 measured after 48 hrs relative to control
# [23] = Inhibition of RTK/PI3K/AKT/mTOR signaling in human U87 cells assessed as up regulation of CDK5 regulatory subunit associated protein 3 gene expression at cytotoxic IC50 measured after 48 hrs relative to control
# [24] = Inhibition of RTK/PI3K/AKT/mTOR signaling in human U87 cells assessed as up regulation of BST2 gene expression at cytotoxic IC50 measured after 48 hrs relative to control
# [25] = Inhibition of RTK/PI3K/AKT/mTOR signaling in human U87 cells assessed as down regulation of SUPT5H gene expression at cytotoxic IC50 measured after 48 hrs relative to control
# [26] = Inhibition of RTK/PI3K/AKT/mTOR signaling in human U87 cells assessed as up regulation of histocompatibility minor 13 gene expression at cytotoxic IC50 measured after 48 hrs relative to control
# [27] = Inhibition of RTK/PI3K/AKT/mTOR signaling in human U87 cells assessed as up regulation of vav guanine nucleotide exchange factor 1 gene expression at cytotoxic IC50 measured after 48 hrs relative to control
# [28] = Inhibition of RTK/PI3K/AKT/mTOR signaling in human U87 cells assessed as down regulation of SART3 gene expression at cytotoxic IC50 measured after 48 hrs relative to control
# [29] = Inhibition of RTK/PI3K/AKT/mTOR signaling in human U87 cells assessed as down regulation of HNRNPAB gene expression at cytotoxic IC50 measured after 48 hrs relative to control
# [30] = Inhibition of RTK/PI3K/AKT/mTOR signaling in human U87 cells assessed as down regulation of EMC7 gene expression at cytotoxic IC50 measured after 48 hrs relative to control
# [31] = Inhibition of RTK/PI3K/AKT/mTOR signaling in human U87 cells assessed as up regulation of NOB1 gene expression at cytotoxic IC50 measured after 48 hrs relative to control
# [32] = Inhibition of RTK/PI3K/AKT/mTOR signaling in human U87 cells assessed as up regulation of ArfGAP with GTPase domain, ankyrin repeat and PH domain 2 gene expression at cytotoxic IC50 measured after 48 hrs relative to control
structure (smiles),measurement,setting,value
CC(=O)C(=NNc1ccccc1C#N)C(C)=O,log2FC,[1],2.2
same,log2FC,[2],-3.24
same,log2FC,[3],-0.451
same,log2FC,[4],0.47
same,log2FC,[5],-1.84
same,log2FC,[6],0.603
same,log2FC,[7],-0.874
same,log2FC,[8],0.412
same,log2FC,[9],0.905
same,log2FC,[10],2.22
same,log2FC,[11],0.744
same,log2FC,[12],-0.831
same,log2FC,[13],1.18
same,log2FC,[14],1.27
same,log2FC,[15],0.816
same,log2FC,[16],-0.692
same,log2FC,[17],2.03
same,log2FC,[18],-0.729
same,log2FC,[19],-1.35
same,log2FC,[20],-0.957
same,log2FC,[21],0.905
same,log2FC,[22],-0.891
same,log2FC,[23],1.1
same,log2FC,[24],2.48
same,log2FC,[25],-0.797
same,log2FC,[26],0.649
same,log2FC,[27],1.05
same,log2FC,[28],-0.425
same,log2FC,[29],-0.435
same,log2FC,[30],-0.793
same,log2FC,[31],0.5
same,log2FC,[32],0.782
